In PubChem BioAssay AID330 (DTP/NCI, 2004) one finds survivor count and T/C data, which are given here for 32 compounds.

The list does not hold the whole screen: it gathers tests that were run many times, whatever their T/C, doses with no T/C, and many T/C values between a quarter and a half above the control. Further doses and runs are listed elsewhere. T/C gives the treated animals as a percentage of the vehicle group. Some entries give survivors of the animals treated and no T/C: the source files T/C as zero there, which appears to mark a toxic dose or a test without result, not a measured value. Some survivor counts are full or nearly so, which does not show that the dose was tolerated: survival well below the control is almost never listed, so the zero probably covers shortened survival too. Survivors were counted at the toxicity check, usually on the fifth day, unless a day is given; later deaths do not show. Schedules are NCI's codes, read here as Q, the interval in days (D) or hours (H), X, the number of doses. For survival time, the PubChem record calls one and a half times the control and up active, and a quarter to a half above the control has no call in these data; cut-offs in other NCI protocols can differ. Some entries hold several experiments; their values stand side by side, smallest first. Some T/C values carry the count of animals alive at the toxicity check (mostly the fifth day); without a count, all were alive then.

This experiment relates to P388 leukemia ip, CD2F1 mice, survival T/C. The experiment in a line: NCI In Vivo Anticancer Drug Screen. Data for tumor model P388 Leukemia (intraperitoneal) in CD2F1 (CDF1) mice. To be noted: T/C endpoint: median survival time, higher T/C = longer survival.
Setting [1] is: dose: 50.0 mg/kg/injection, schedule: Q01DX009 (ip), vehicle: saline.
Setting [2] is: dose: 100.0 mg/kg/injection, schedule: Q01DX009 (ip), vehicle: saline.
The mark [3] stands for this setting: dose: 200.0 mg/kg/injection, schedule: Q01DX009 (ip), vehicle: saline.
Where [4] appears, read: dose: 50.0 mg/kg/injection, schedule: Q01DX005 (ip), vehicle: Klucel (hydroxypropylcellulose) (HPC).
[5] abbreviates: dose: 100.0 mg/kg/injection, schedule: Q01DX005 (ip), vehicle: Klucel (hydroxypropylcellulose) (HPC).
[6] abbreviates: dose: 200.0 mg/kg/injection, schedule: Q01DX005 (ip), vehicle: Klucel (hydroxypropylcellulose) (HPC).
Setting [7] is: dose: 120.0 mg/kg/injection, schedule: Q01DX005 (ip), vehicle: saline with Tween-80.
The mark [8] stands for this setting: dose: 240.0 mg/kg/injection, schedule: Q01DX005 (ip), vehicle: saline with Tween-80.
Where [9] appears, read: dose: 400.0 mg/kg/injection, schedule: Q04DX003 (ip), vehicle: saline with Tween-80.
Where [10] appears, read: dose: 200.0 mg/kg/injection, schedule: Q01DX005 (ip), vehicle: saline.
Where [11] appears, read: dose: 25.0 mg/kg/injection, schedule: Q01DX009 (ip), vehicle: water.
Where [12] appears, read: dose: 25.0 mg/kg/injection, schedule: Q01DX009 (ip), vehicle: saline.
[13] abbreviates: dose: 400.0 mg/kg/injection, schedule: Q01DX009 (ip), vehicle: saline.
Setting [14] is: dose: 50.0 mg/kg/injection, schedule: Q01DX009 (ip), vehicle: saline with Tween-80.
[15] abbreviates: dose: 200.0 mg/kg/injection, schedule: Q01DX009 (ip), vehicle: saline with Tween-80.

As to `CCCCCCCCCC[N+]1(CC)CCCCC1`, the survivor count by setting is: under setting [1], 0 of 6; under setting [2], 0 of 6; under setting [3], 0 of 6.
`C/C(=C\C(=O)c1ccc(F)cc1)N1CCN(c2ccc(F)cc2)CC1`: under “dose: 200.0 mg/kg/injection, schedule: Q01DX005 (ip), vehicle: other”, the survivor count is on record as 3 of 6.
In the case of `CCNCC(O)c1cccc(C(F)(F)F)c1` (stereo not drawn), under setting [3], the survivor count is 0 of 6.
As to `CN(C)C1=C(Cl)C(=O)c2[nH]cnc2C1=O`, the survivor count is recorded as 5 of 5 under setting [4], 0 of 6 under setting [5] and 0 of 6 under setting [6].
`O=[N+]([O-])c1ccc(Sc2nccc(Cl)n2)c([N+](=O)[O-])c1`: the survivor count under setting [1] was 5 of 6.
Regarding `CCN(CC)CCNc1ccnc(F)n1`, the survivor count by setting is: under setting [7], 0 of 6; under setting [8], 0 of 6.
As to `OC(CCl)Cn1nnc2c3ccccc3ccc21` (stereo not drawn), the survivor count under setting [9] is reported as 3 of 6.
As to `Cc1nnc2nc(N)[nH]n2c1=O`, the survivor count (dose: 200.0 mg/kg/injection, schedule: Q01DX005 (ip), vehicle: water) is recorded as 0 of 6.
As for `CCNc1cc(N)[n+](CC)c2n[nH]c(N)c12`, under setting [10], the survivor count is 0 of 6.
Consider `CC(=O)C(=CN(C)c1ccc([N+](=O)[O-])cc1)C(C)=O`, for which the survivor count under setting [1] is reported as 6 of 6.
With `O=NN(CCCl)C(=O)Nc1c[nH]c2ccccc12`, where the note is “dose: 25.0 mg/kg/injection, schedule: Q01DX009 (ip), vehicle: Klucel (hydroxypropylcellulose) (HPC)”, the T/C was 135 % of control.
Consider `COc1cccc2c1C(=O)c1c(O)c3c(c(O)c1C2=O)C[C@@](O)(C(C)=O)C[C@@H]3OC1CC(NC(C)C)C(O)C(C)O1` (stereo partly drawn), for which the T/C (dose: 1.56 mg/kg/injection, schedule: Q01DX009 (ip), vehicle: water) was 131 and 137 % of control; the T/C (dose: 3.13 mg/kg/injection, schedule: Q01DX009 (ip), vehicle: water) was 139 and 144 % of control; the T/C (dose: 18.8 mg/kg/injection, schedule: Q04DX003 (ip), vehicle: water) is 125 % of control; the T/C (dose: 37.5 mg/kg/injection, schedule: Q04DX003 (ip), vehicle: water) was 127 and 141 % of control; the T/C (dose: 75.0 mg/kg/injection, schedule: Q04DX003 (ip), vehicle: water) was 134 and 148 % of control. Moreover, the survivor count is 6 of 6 under setting [11]; 4 of 6 (dose: 50.0 mg/kg/injection, schedule: Q01DX009 (ip), vehicle: water); 1 of 6 (dose: 300.0 mg/kg/injection, schedule: Q04DX003 (ip), vehicle: water).
Consider `CN(CN1C(=O)CCC1=O)CN1C(=O)CCC1=O`, for which the T/C reads like this: (dose: 120.0 mg/kg/injection, schedule: Q01DX005 (ip), vehicle: saline) 126 % of control; (dose: 240.0 mg/kg/injection, schedule: Q01DX005 (ip), vehicle: saline) 138 % of control [5 of 6 alive].
Take `Cc1c2cc(Cl)c3ccccc3c2c[n+]2ccccc12`: the T/C reads like this: under setting [12], 125 % of control; (dose: 200.0 mg/kg/injection, schedule: Q04DX003 (ip), vehicle: saline with Tween-80) 127 % of control. Further, the survivor count under setting [1] is given as 6 of 6, the survivor count under setting [2] was 6 of 6, the survivor count under setting [3] is listed as 3 of 6 and the survivor count under setting [13] is 6 of 6.
As to `CC(C)CCC1=CC(=O)C(CCC(C)C)=CC1=O`, the survivor count is 6 of 6 (dose: 25.0 mg/kg/injection, schedule: Q01DX009 (ip), vehicle: saline with Tween-80); 3 of 6 under setting [14]; 1 of 6 (dose: 100.0 mg/kg/injection, schedule: Q01DX009 (ip), vehicle: saline with Tween-80); 0 of 6 under setting [15].
With `COc1cc(C2c3cc4c(cc3CCN2C)OCO4)cc(OC)c1OC` (stereo not drawn), the survivor count (dose: 200.0 mg/kg/injection, schedule: Q01DX005 (ip), vehicle: saline with Tween-80) is recorded as 4 of 5.
Turning to `Nc1nc2c(ncn2C2OC(CO)C(O)C2O)c(=O)[nH]1.Nc1nc2c(ncn2C2OC(CO)C(O)C2O)c(=O)[nH]1.[NH2-].[NH2-].[Pt+2]` (stereo not drawn), the T/C was 138 % of control [3 of 4 alive] under setting [11]; 137 % of control under setting [2]; 126 % of control under setting [3]; 129 % of control (dose: 200.0 mg/kg/injection, schedule: Q01DX009 (ip), vehicle: water); 126 % of control under setting [13]; 129 % of control (dose: 400.0 mg/kg/injection, schedule: Q04DX003 (ip), vehicle: saline). Besides, the T/C (dose: 800.0 mg/kg/injection, schedule: Q04DX003 (ip), vehicle: saline) was 129 % of control. The survivor count (dose: 400.0 mg/kg/injection, schedule: Q01DX009 (ip), vehicle: water) is given as 3 of 4.
`Clc1ccccc1OCc1cnc[nH]1`: the survivor count under setting [3] is recorded as 0 of 6.
Consider `CC(=O)Oc1ccc[nH]c1=S`, for which the survivor count reads like this: (dose: 12.5 mg/kg/injection, schedule: Q01DX009 (ip), vehicle: saline) 0 of 6; under setting [12], 0 of 6; under setting [1], 0 of 6; under setting [2], 0 of 6; under setting [3], 0 of 6; (dose: 400.0 mg/kg/injection, schedule: Q01DX008 (ip), vehicle: saline) 3 of 6. For the same compound, the survivor count under setting [13] is 0 of 6. For the same compound, under setting [13], the T/C was 133 % of control [4 of 6 alive].
Take `COc1ccc(-c2cc(=O)c3c(O)cc(O)cc3o2)cc1`: the survivor count under setting [9] is on record as 6 of 6.
`C=C1CC2C3CC=C4CC(OC(C)=O)CCC4(C)C3CCC2(C)C1=O` (stereo not drawn): the survivor count is, setting by setting: under setting [14], 3 of 6; under setting [3], 3 of 6.
Consider `CNC(=S)SCc1ccccc1`, for which the survivor count under setting [15] is recorded as 3 of 6.
`COc1ccn(C2OC(COC(=O)c3ccccc3)C(OC(=O)c3ccccc3)C2OC(=O)c2ccccc2)c(=O)n1` (stereo not drawn): the survivor count under setting [5] was 6 of 6.
In the case of `CC(=O)C(C)(CC#N)C(CC=O)CCC#N` (stereo not drawn), the T/C under setting [7] is 125 % of control and the T/C under setting [8] is 140 % of control.
In the case of `COc1ccc2c(c1)[C@@]13CCCC[C@H]1[C@@H](C2)N(C)CC3(C)O` (stereo partly drawn), the survivor count (dose: 400.0 mg/kg/injection, schedule: Q04DX002 (ip), vehicle: Klucel (hydroxypropylcellulose) (HPC)) is 6 of 6.
Take `Cc1ccc2nc(-c3ccc4nc(-c5ccc(N=Nc6ccc(-c7nc8ccc(-c9nc%10ccc(C)c(S(=O)(=O)O)c%10s9)cc8s7)cc6)cc5)sc4c3)sc2c1S(=O)(=O)O`: the survivor count under setting [13] is reported as 0 of 6.
As to `COC(=O)[C@]12CCC(C)(C)C[C@H]1C1=CC[C@@H]3[C@@]4(C)C[C@H](O)[C@H](OC5OC(CO)C(O)C(O)C5O)C(CO)(CO)[C@@H]4CC[C@@]3(C)[C@]1(C)C[C@H]2O` (stereo partly drawn), the survivor count by setting is: (dose: 25.0 mg/kg/injection, schedule: Q01DX005 (ip), vehicle: Klucel (hydroxypropylcellulose) (HPC)) 2 of 6; under setting [4], 0 of 6; under setting [5], 0 of 6; under setting [6], 0 of 6.
Take `COc1ccc(OC)c(/C=C2/C(=O)ON=C2C)c1`: the survivor count under setting [8] is 4 of 6.
Turning to `[O-]/[N+](C1C(Cl)C2CC1C1C=CCC12)=[N+](\[O-])C1C(Cl)C2CC1C1C=CCC12` (stereo not drawn), the survivor count by setting is: under setting [7], 6 of 6; under setting [8], 6 of 6.
On to `C[Si](C)(C)CN1CCCC1`, for which, under setting [10], the survivor count is recorded as 0 of 6.
For `Nc1nc(N)c(-c2ccc(Cl)c(Cl)c2)c(COc2cccc(CNC(=O)c3cccc(S(=O)(=O)F)c3)c2)n1`, the T/C (dose: 200.0 mg/kg/injection, schedule: Q04DX003 (ip), vehicle: Klucel (hydroxypropylcellulose) (HPC)) was 125 % of control.
Consider `CC1CC2(OC2C)C(=O)OC2CCN(C)C/C=C(/COC(=O)C1(C)O)C2=O` (stereo not drawn), for which the T/C (dose: 20.0 mg/kg/injection, schedule: Q01DX009 (ip), vehicle: Klucel (hydroxypropylcellulose) (HPC)) is 128 % of control.
